Taken from: PubChem BioAssay AID743121 (NCATS, 2013)
This is an unselected part of about 26,000 reagents. 167 of them (0.63%) were called active. 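Calls are per gene from RSA p-values that are not deposited; an individual active-marked siRNA can sensitise only weakly.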 The numbers tell different reagents against one gene apart. Not all columns of the deposit are shown.

- Screen: 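Knock-downs that sensitise breast cancer cells to camptothecin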 (primary screen)
- Cells: MDA-MB-231 cells, a human breast cancer line
- Reagents: single siRNA against human genes, 20 nM siRNA (0.8 pmol per well)
- Timing: 120 h (drug added 48 h after transfection, read 72 h later)
- Conditions: camptothecin 20 nM (about EC30) for 72 h; vehicle 0.1% DMSO in parallel plates
- Read-out: 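Cell viability by ATP luminescence (CellTiter-Glo) as % of non-targeting siRNA wells, and the log2 ratio of viability without drug over viability with camptothecin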
- Reading the numbers: log2 vehicle/camptothecin viability: higher = stronger sensitisation to camptothecin; viability with camptothecin: higher = more viable cells
- Call rule: 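Each gene scored by redundant siRNA activity (RSA) over its individual siRNA ratios; a gene is called active at p < 0.001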

| gene symbol | siRNA no. | log2 vehicle/camptothecin viability | viability with camptothecin (% of control) | outcome |
| --- | --- | --- | --- | --- |
| PNRC1 | 1 | -0.275 | 125 | inactive |
| PNRC1 | 2 | -0.186 | 97.5 | inactive |
| PNRC1 | 3 | -0.408 | 66.3 | inactive |
| PNRC1 | 4 | -0.352 | 74.2 | inactive |
| CHRNA1 | 1 | -0.128 | 75.6 | inactive |
| CHRNA1 | 2 | -0.534 | 81.1 | inactive |
| CHRNA1 | 3 | 0.192 | 68.5 | inactive |
| CHRNA1 | 4 | -0.312 | 57.5 | inactive |
| NEUROD6 | 1 | -0.448 | 89.5 | inactive |
| NEUROD6 | 2 | -0.407 | 13.7 | inactive |
| NEUROD6 | 3 | -0.365 | 97.4 | inactive |
| JPH3 | 1 | -0.234 | 118 | inactive |
| JPH3 | 2 | -0.496 | 111 | inactive |
| JPH3 | 3 | -0.422 | 68.6 | inactive |
| PLAAT2 | 1 | -0.00816 | 95.4 | inactive |
| PLAAT2 | 2 | 0.836 | 35.9 | inactive |
| PLAAT2 | 3 | 0.0712 | 87 | inactive |
| NAPSB | 1 | 1.74 | 12.6 | inactive |
| NAPSB | 2 | -0.387 | 105 | inactive |
| NAPSB | 3 | -0.409 | 82.4 | inactive |
| NAPSB | 4 | 0.261 | 35 | inactive |
| PARP1 | 1 | -0.162 | 105 | inactive |
| PARP1 | 2 | -0.0606 | 73.1 | inactive |
| PARP1 | 3 | -0.302 | 54.2 | inactive |
| PARP1 | 4 | -0.593 | 71.5 | inactive |
| SLC25A36 | 1 | -0.112 | 121 | inactive |
| SLC25A36 | 2 | 0.283 | 74.2 | inactive |
| SLC25A36 | 3 | -0.193 | 55.4 | inactive |
| SLC25A36 | 4 | 0.00502 | 77.2 | inactive |
